Laboratory results: PubChem BioAssay AID1159584 (Peter MacCallum Cancer Centre, 2016)
This is a random part of about 18,000 reagents tested. Not given: the amount of reagent, the time to read-out.

- Purpose: 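Genes that CDH1-null MCF10A cells selectively depend on to survive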 (primary screen)
- Cells: human MCF10A breast epithelial cells, parental and CDH1-null
- Reagent: siRNA against human genes
- Measured: 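Cell viability by CellTiter-Glo ATP luminescence, each line scaled to the mean of mock wells across plates, then CDH1-null over parental ratio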
- Reading the numbers: CDH1-null / parental viability ratio: higher = CDH1-null cells survive relatively better than parental; CDH1-null viability vs mock: higher = more viable CDH1-null cells; parental viability vs mock: higher = more viable parental cells

no.	gene	CDH1-null / parental viability ratio	CDH1-null viability vs mock (fraction of mock)	parental viability vs mock (fraction of mock)
1	ZFAND5	0.85	0.87	1.02
2	RHCG	1.08	0.91	0.84
3	SPINK8	1.01	1	0.99
4	PCARE	0.91	0.2	0.22
5	FAM47C	0.96	0.81	0.84
6	LPCAT4	0.47	0.41	0.88
7	CALHM1	1.18	0.92	0.78
8	NABP2	0.94	0.92	0.98
9	NHERF1	1.06	0.82	0.77
10	CSNK1A1	0.89	0.76	0.85
11	PITHD1	0.73	0.52	0.71
12	HS3ST5	0.76	0.7	0.92
13	HGS	1.21	0.85	0.7
14	CFDP1	1.12	1.1	0.98
15	GPC3	0.54	0.39	0.72
16	METTL14	0.83	0.78	0.94
17	OR1C1	1.11	0.73	0.66
18	SLC9A5	1.06	0.86	0.81
19	SNAP47	0.98	0.84	0.86
20	CALCRL	0.86	0.96	1.12
21	DCP1B	1.23	0.92	0.75
22	PSMA1	1.33	0.4	0.3
23	CACNG5	1.39	1.14	0.82
24	GATM	1.07	0.62	0.58

Reprinted from the entries so far for reference:
no.	gene	CDH1-null / parental viability ratio	CDH1-null viability vs mock (fraction of mock)	parental viability vs mock (fraction of mock)
9	NHERF1	1.06	0.82	0.77
10	CSNK1A1	0.89	0.76	0.85
11	PITHD1	0.73	0.52	0.71
12	HS3ST5	0.76	0.7	0.92
13	HGS	1.21	0.85	0.7
14	CFDP1	1.12	1.1	0.98
15	GPC3	0.54	0.39	0.72
16	METTL14	0.83	0.78	0.94

Additional records:
no.	gene	CDH1-null / parental viability ratio	CDH1-null viability vs mock (fraction of mock)	parental viability vs mock (fraction of mock)
25	ELN	0.83	0.4	0.48
26	ROR1	1.05	0.88	0.84
27	DIDO1	0.94	0.66	0.7
28	CADM4	1.15	0.46	0.4
29	CCDC8	0.97	0.34	0.35
30	DPPA4	1.09	1.04	0.95
31	FGF13	0.84	0.82	0.98
32	VSIG2	0.92	0.77	0.84
33	GABPB1	1.1	1.03	0.94
34	SSH2	1.25	0.96	0.77
35	KIF6	0.74	0.71	0.96
36	COX15	0.87	0.82	0.94
37	KCNJ12	1.1	0.88	0.8
38	SGPP2	1.35	0.92	0.68
39	SMNDC1	1.06	0.87	0.82
40	GPATCH3	1.05	0.6	0.57
41	MS4A8	0.8	0.7	0.88
42	RUSC1	1.06	0.92	0.87
43	STAC3	1.08	0.8	0.74
44	RPS8	1.27	0.38	0.3
45	ANGEL2	1.08	0.82	0.76
46	FOXB2	0.76	0.29	0.38
47	LMTK1	0.99	0.88	0.89
48	COG1	1.15	1.25	1.09
49	UTP18	1.34	0.51	0.38
50	TMEM94	1.83	0.44	0.24
51	ABHD18	1.04	1.06	1.02
52	MAP7	1.27	1.12	0.88
53	ACSM1	1.14	0.32	0.28
54	SGCB	0.92	0.84	0.91
55	TRIM14	0.94	0.96	1.02
56	MTCH1	1.35	1.05	0.78
57	GALNT18	1.2	1	0.83
58	JMJD6	1.4	0.74	0.53
59	HUS1B	1.46	0.73	0.5
60	RPL37A	1.35	0.35	0.26
61	CNTN5	0.48	0.31	0.64
62	NDRG1	0.96	0.48	0.5
63	LRP11	0.84	0.64	0.76
64	GRAMD2B	1.18	0.84	0.71
65	ASB4	1.03	0.8	0.78
66	WFS1	1.1	0.88	0.8
67	SELENOV	0.77	0.33	0.43
68	KSR2	1.01	0.76	0.75
